Only a part is listed here, and it is no random draw. At the low end of the ranking the order means little.

One assay concerns the target T1, ELK1 (UniProt P19419).
T1 sequence: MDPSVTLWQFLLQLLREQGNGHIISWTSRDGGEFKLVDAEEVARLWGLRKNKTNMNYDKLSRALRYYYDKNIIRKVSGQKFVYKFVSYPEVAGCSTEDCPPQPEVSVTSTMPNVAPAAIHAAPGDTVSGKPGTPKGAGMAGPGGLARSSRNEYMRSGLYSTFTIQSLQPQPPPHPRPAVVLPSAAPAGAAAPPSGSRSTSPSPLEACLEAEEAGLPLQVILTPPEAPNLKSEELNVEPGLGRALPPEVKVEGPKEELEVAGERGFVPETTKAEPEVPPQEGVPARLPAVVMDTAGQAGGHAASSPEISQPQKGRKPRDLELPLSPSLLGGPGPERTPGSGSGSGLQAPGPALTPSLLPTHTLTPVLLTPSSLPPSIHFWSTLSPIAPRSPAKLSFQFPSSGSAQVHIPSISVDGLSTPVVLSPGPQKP
The assay is described as follows: DAPPL (digital affinity profiling via proximity ligation, sequencing). The following applies: 10 mM Tris-HCl pH 7.5, 50 mM NaCl, 1 mM DTT, 4% glycerol, room temperature, 30 min; GST-TFs on glutathione beads, 16-mer random dsDNA library, 0.1% …; high values mean tight binding; double strand, one strand shown; scale: fold enrichment (6-mer frequency, TF over GST control).
Sequence TGTTGT returned a binding signal of 1.15.

TAGATA returned a binding signal of 1.03.

TACTCC gave a binding signal of 1.2.

Turning to ATTCCT, the binding signal stood at 1.37.

GGGTTT: the binding signal was 0.97.

As to ATTCAC, the binding signal came to 1.2.

The sequence ACTCGG showed a binding signal of 0.848.

The sequence AACTAC registered a binding signal of 1.42.

Sequence TTGGCT showed a binding signal of 1.07.

The sequence GATCCC came in with a binding signal of 1.16.

As for ACTGGA, the binding signal amounted to 0.961.

The sequence CGTTAT returned a binding signal of 1.11.

CACCCT returned a binding signal of 1.26.

For CTTCGT, the binding signal was determined as 1.45.

With GGTACT, the binding signal worked out at 1.21.

Sequence GCTCCG had a binding signal of 1.4.

TAATTA gave a binding signal of 1.2.

As for TGCACA, the binding signal stood at 1.18.

The sequence TTGACT displayed a binding signal of 1.19.

In the case of CAACCG, the binding signal was determined as 1.13.

The sequence CTCCAC yielded a binding signal of 1.41.

Turning to TATTGA, the binding signal is 1.16.

Sequence GCCTAA showed a binding signal of 1.17.

As for CCGGTT, the binding signal is 2.1.

The sequence TCCATT came in with a binding signal of 1.16.

Consider AAGGTT, for which the binding signal amounted to 1.15.

In the case of CAACTC, the binding signal is 1.23.

In the case of CAATGC, the binding signal worked out at 1.23.

In turn, TTTTTG gave a binding signal of 1.29.

The sequence CATTAC had a binding signal of 1.

AATTCG: the binding signal is 1.26.

As for TAGATG, the binding signal turned out to be 1.29.

For ATTGGG, the binding signal turned out to be 1.24.

For the sequence GCCGCT, the binding signal is 1.08.

In turn, CTGTGC returned a binding signal of 1.18.

For the sequence ATATCA, the binding signal was found to be 1.24.

As for TCGCCG, the binding signal came out at 1.24.

CTACGT displayed a binding signal of 1.23.

CGGCCT: the binding signal stood at 1.15.

The next assay deals with T2, ETS2 (UniProt P15036).
T2 sequence: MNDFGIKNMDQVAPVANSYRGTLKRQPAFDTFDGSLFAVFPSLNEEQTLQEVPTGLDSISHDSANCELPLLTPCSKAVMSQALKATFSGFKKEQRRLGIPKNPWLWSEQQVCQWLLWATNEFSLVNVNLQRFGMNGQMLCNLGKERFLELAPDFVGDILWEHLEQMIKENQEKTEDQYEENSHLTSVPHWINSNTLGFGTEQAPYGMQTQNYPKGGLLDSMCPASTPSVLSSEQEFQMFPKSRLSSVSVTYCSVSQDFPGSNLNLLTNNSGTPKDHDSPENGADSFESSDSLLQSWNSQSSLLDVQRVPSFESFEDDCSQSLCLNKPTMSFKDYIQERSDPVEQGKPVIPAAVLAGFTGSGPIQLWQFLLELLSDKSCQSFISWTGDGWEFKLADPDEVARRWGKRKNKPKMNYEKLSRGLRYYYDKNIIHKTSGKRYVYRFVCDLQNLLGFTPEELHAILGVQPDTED
Described as above. The following applies: 10 mM Tris-HCl pH 7.5, 50 mM NaCl, 1 mM DTT, 4% glycerol, room temperature, 30 min; GST-TFs on glutathione beads, 16-mer random dsDNA library, 0.1% …; high values mean tight binding; double strand, one strand shown; scale: fold enrichment (6-mer frequency, TF over GST control).
For ACTCGG, the binding signal was 0.989.

In the case of TTGGCT, the binding signal is 0.949.

ACTGGA displayed a binding signal of 0.999.

Regarding CACCCT, the binding signal was determined as 1.09.

The sequence GCTCCG yielded a binding signal of 1.33.

As to CAACTC, the binding signal is 1.26.

The record behind these values is article PMC7862700.
